Measurements reported in PubChem BioAssay AID1259415 (National Center for Advancing Translational Sciences (NCATS), 2018).
“And” between values parts separate entries of the source, which are not always exact repeats. Equal entries are not always repeated. In all, about 410,000 compounds went through this assay and about 18,000 (4.4%) were called active. The shares of active, inactive and inconclusive entries below differ from those in the screen. Cut-off read from the data, not from the text of the source: active = activity change below about -60%; inconclusive = no clear call, values can overlap the other calls; inactive = above about -39%.

assay: qHTS Assay for inhibitors of the human cytomegalovirus (HCMV); details: HFF cells, HCMV-luciferase reporter, 72 h; at 57.5 µM; active compounds read low
Procedure, shortened: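 Compounds were evaluated in HFFs infected with an HCMV luciferase reporter virus (MOI 1 PFU/cell). Luciferase in lysates collected 72 h post infection served as the replication measure.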
% is set by controls: 0 for no effect and ±100 for the full control effect.

| Compound | activity change, negative = inhibition |
| --- | --- |
| COc1cccc(/C=N/NC(=O)c2cc3c(OC)ccc(OC)c3[nH]2)c1O | active: -99.2% |
| CN(C)c1ccc(N=Nc2ccccc2C(=O)OCC(=O)NCC2CCCCC2)cc1 | active: -61% |
| CCc1cc2c(=O)c(-c3cscn3)coc2c(CN(C)C)c1O | inconclusive: -47.8% |
| O=C(/C=C/Nc1ccc(F)cc1Br)c1ccccc1 | inconclusive: -44.9% |
| CN1CCN(S(=O)(=O)c2cccc(C(=O)Nc3ccc(Br)cc3Br)c2)CC1 | inconclusive: -44.5% |
| O=C1OC(/C(=C\Nc2cc(Cl)ccc2O)[N+](=O)[O-])c2ccccc21 (stereo unspecified) | active: -77% |
| COc1cccc(-c2nc(C=O)cs2)c1 | inactive: -15.5% |
| Cc1cc(-n2c(C)cc(C(=O)COc3ccc(Cl)cc3C(N)=O)c2C)no1 | inconclusive: -45.1% |
| CCOc1ccc(CCNC(=O)c2ccc3c(c2)c(C)c(C)n3C)cc1 | inactive: 0% |
| COc1ccccc1CCNC(=O)CC1C(=O)NCCN1CCCc1ccccc1 (stereo unspecified) | inactive: 12% |
| COc1ccc(N=C2SC(CC(=O)Nc3ccccc3)C(=O)N2CCN2CCOCC2)cc1 (stereo unspecified) | inactive: -4.22% |
| COc1cccc(OCCOCC(O)CN2CCN(Cc3ccc(Cl)cc3)CC2)c1 (stereo unspecified) | inconclusive: -47.5% |
| COc1ccc(C(=O)Nc2cccc(S(=O)(=O)NCc3ccco3)c2)cc1 | inactive: -18% |
| CSc1nc2sc3c(c2c(=O)n1-c1ccc(C)c(Cl)c1)CCN(C(C)=O)C3 | inactive: -14% |
| O=[N+]([O-])c1ccc2c3n([n+]([O-])c2c1)CCN=C3c1ccc(Cl)cc1 | inactive: -1.85% |
| COc1ccc(Cl)cc1N(CC(=O)NCc1ccccn1)S(=O)(=O)c1ccc(C)cc1 | inconclusive: -45.3% |
| C/C=C(/C)C(=O)O[C@H]1[C@@H](O)c2c(ccc3ccc(=O)oc23)OC1(C)C | inconclusive: -47.2% |
| COc1cccc(-c2cc3c(c4c2ccn4C)C2CCC3C2)c1 (stereo unspecified) | inconclusive: -46.4% |
| COCCN(CC(=O)NCc1ccc(OC)cc1)C(=O)CCC(=O)Nc1nccs1 | inconclusive: -50.9% |

| Compound | activity change, negative = inhibition |
| --- | --- |
| CCCN(c1ccc(C(C)C)cc1)S(=O)(=O)c1c(C)noc1C | inconclusive: -42.6% |
| COc1ccc(-n2c(CN3CCN(c4ccccn4)CC3)nc3ccc([N+](=O)[O-])cc3c2=O)c(OC)c1 | inactive: 55.7% |
| CC(=O)Nc1ccc(NC(=O)CN(C)CC(=O)Nc2ccccc2Br)cc1 | inconclusive: -43.5% |
| CCCn1c(SCC(=O)NNC(=O)c2ccccc2)nnc1-c1cccnc1 | inactive: -37.8% |
| COC(=O)c1ccc(NC(=O)CCc2c(C)nn(-c3ccc(N4CCCC4)nn3)c2C)cc1 | inconclusive: -43% |
| Cc1ccc(NC(=O)CSc2ccccc2NC(=O)c2ccccc2Cl)cc1Cl | inconclusive: -49.4% |
| CCOc1ccc(C(C)NC(=O)c2cccnc2OCC)cc1OCC (stereo unspecified) | inconclusive: -44.8% |
| CCCCN(C(=O)c1cccc2c(=O)c(C)c(-c3ccccc3)oc12)c1ccccc1 | active: -62.8% |
| Cc1ccccc1CN1[C@@H](C)[C@H](c2ccccc2)Oc2cccc(N3CCCC(C)C3)c2S1(=O)=O (stereo partly specified) | inconclusive: -52.8% |
| O=C(c1ccc(F)cc1)C1CCN(C(=O)Nc2ccc(F)cc2)CC1 | inconclusive: -42.7% |
| CN(C(=O)CSc1nncc2ccccc12)c1ccccc1 | inconclusive: -40.7% |
| Cc1ccc(N=C2NC(=O)/C(=C\c3ccc(C)s3)S2)cc1 | inactive: -37.7% |
| O=C(Cn1c(=O)oc2cc(S(=O)(=O)N3CCCCCC3)ccc21)Nc1cccc(C(F)(F)F)c1 | inconclusive: 0% |
| N#Cc1c(-c2cccc(Br)c2)cc(-c2cccnc2)nc1N | inconclusive: -52.8% |
| COCCCn1c(=O)c2sccc2n(Cc2ccccc2C)c1=O | inactive: -16.2% |
| Cc1nc(NC(=O)CCc2ccccc2)ccc1Br | inactive: 32.8% |
| CC(C)OP(=O)(c1ccccc1)c1ccccc1 | inconclusive: -42.8% |
| CC(C)C(=O)N1CCN(c2ccc(NC(=O)c3ccc([N+](=O)[O-])o3)cc2Cl)CC1 | active: -99.9% |
| Cc1ccc(C(c2nnnn2CCc2ccccc2)N2CCC(C)CC2)cc1 (stereo unspecified) | inconclusive: -41% |

| Compound | activity change, negative = inhibition |
| --- | --- |
| O=C(COc1ccc(S(=O)(=O)NC2CCCCC2)cc1)N1CCN(c2cccc(Cl)c2)CC1 | active: -90.5% |
| O=[N+]([O-])c1ccc(/C=C/c2ccc3cccc([N+](=O)[O-])c3n2)cc1 | inconclusive: -40.6% |
| CC(=O)c1c(-c2ccccc2)[nH]c2ccccc12 | inconclusive: -52.2% |
| CCc1nc2ccc(C(=O)NCCN(C)C)cn2c1N(CC)CCOC | inactive: 11.7% |
| Cc1cc2ccccn2c1C(=O)c1ccc(C#N)cc1 | active: -80.5% |
| CCN(CC)CCNC(=O)c1ccc(NC(C)=O)cc1 | inactive: 50.2% and inactive: 45.9% |
| O=C1c2ccccc2C(=O)N1CCc1nc2ccccc2c(=O)n1Cc1ccco1 | inactive: 29.3% |
| O=C(/C=C/c1cccc(F)c1)N1CCN(c2ncccn2)CC1 | inactive: 5.46% |
| Cc1[nH]n2c(=O)cc(-c3ccccc3Cl)nc2c1-c1ccccc1 | active: -93.6% |
| Cc1cnc(NC(=O)c2ccc(-c3ccc([N+](=O)[O-])cc3)o2)s1 | inconclusive: -59.4% |
| Cc1ccc(S(=O)(=O)c2nc(S(=O)(=O)c3ccccc3)sc2N2CCN(CCO)CC2)cc1 | active: -97.9% |
| CCC(=O)N1CCc2cc(Br)cc(S(=O)(=O)NCCc3ccc(OC)c(OC)c3)c21 | inactive: 4.79% |
| CSc1ccccc1C(=O)NCC(c1ccco1)N1CCCCC1 (stereo unspecified) | inconclusive: -46.2% |
| Cc1nc2ccccc2c(=O)n1NC(=O)c1c(O)c2c(n(CC(C)C)c1=O)CCCC2 | inconclusive: -43% |
| Cc1nnc(SCC(=O)N(CC(C)C)C2CCS(=O)(=O)C2)s1 (stereo unspecified) | inconclusive: -55.3% |
| Cc1cc(CN(C)C(=O)c2ccc(OC3CCN(CCc4ccccc4)CC3)cc2)on1 | inactive: 8.23% |
| CC(=O)Cc1c(C(=O)O)c(C)nn1-c1ccccc1 | inactive: -35% |
| O=C(COc1ccccc1-c1ccccc1)NCc1ccco1 | inconclusive: -45% |

By substructure, the compounds so far with two or more sulfur atoms.

| Compound | activity change, negative = inhibition |
| --- | --- |
| CSc1nc2sc3c(c2c(=O)n1-c1ccc(C)c(Cl)c1)CCN(C(C)=O)C3 | inactive: -14% |
| Cc1ccc(N=C2NC(=O)/C(=C\c3ccc(C)s3)S2)cc1 | inactive: -37.7% |
| Cc1ccc(S(=O)(=O)c2nc(S(=O)(=O)c3ccccc3)sc2N2CCN(CCO)CC2)cc1 | active: -97.9% |
| Cc1nnc(SCC(=O)N(CC(C)C)C2CCS(=O)(=O)C2)s1 (stereo unspecified) | inconclusive: -55.3% |
